# Measurements: PubChem BioAssay AID1487 (National Center for Advancing Translational Sciences (NCATS), 2009)
# The other results are listed elsewhere or left out. Shown are side measurements of this screen, not its main read-out; they come without a call. The list favours compounds with an active or inconclusive main result. Words in brackets tell the shape of the fitted curve; partial curves, single points and poor fits give uncertain potencies.
# Test: qHTS Assay for Modulators of Lamin A Splicing
# Details: HeLa LMNA splicing GFP/RFP minigene ratio, 48 h
# Summary of the method: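 S3 HeLa cells stably expressing lamin A-EGFP splicing minigene plus DsRed2, 600 cells/well, 48 h compound exposure at 37C. Laser-scanning cytometry; analysed as GFP (500-530 nm)/RFP (575-640 nm) total intensity ratio; 0.5% DMSO vehicle.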
# [1] = measured here: RFP viability control channel
# [2] = measured here: GFP splicing reporter channel
structure (smiles),measurement,setting,value
COc1ccc(-c2nc3sc(CCNC(=O)c4cc(Cl)ccc4OC)c(C)n3n2)cc1,AC50,[1],"31.6 µM [rising, single point]"
CSc1cccc(NC(=O)COc2ccccc2C)c1,AC50,[1],"3.16 µM [rising, full curve, poor fit]"
CC1CN(S(=O)(=O)c2ccc(C(=O)NCCCn3ccnc3)cc2)CC(C)O1 (stereo not given),AC50,[2],"1 µM [rising, full curve, poor fit]"
same,AC50,[1],"0.891 µM [rising, full curve]"
Cc1oc2c(cc(NS(=O)(=O)c3ccc4c5c(cccc35)C(=O)N4)c3ccccc32)c1C(=O)OC(C)C,AC50,[2],"15.8 µM [falling, single point]"
Cc1ccccc1N(C(=O)c1csnn1)C(C(=O)NC(C)(C)C)c1cccs1 (stereo not given),AC50,[2],"35.5 µM [falling, single point]"
CCCc1nc(SCC(=O)Nc2cc(C)on2)c2ccccc2n1,AC50,[2],"8.91 µM [rising, single point]"
CC(=O)N(Cc1cc2ccc(C)c(C)c2n2nnnc12)C1CCCC1,AC50,[1],"22.4 µM [rising, single point]"
CN(Cc1ccccc1)S(=O)(=O)c1ccc(F)c(C(=O)Nc2cccc(Cl)c2Cl)c1,AC50,[1],"17.8 µM [rising, single point]"
C=CCN=C1CCCc2c1[nH]c1ccc(C)cc21,AC50,[1],"0.891 µM [rising, single point]"
O=C(NCc1cccs1)c1nc2c(nnn2Cc2ccccc2Cl)c(=O)[nH]1,AC50,[2],"11.2 µM [falling, partial curve]"
same,AC50,[1],"28.2 µM [falling, single point]"
CCOc1ccc(S(=O)(=O)Nc2cccc(OC)c2)cc1,AC50,[1],"31.6 µM [rising, single point]"
COc1ccc(O)c(/C=N/NC(=O)c2c(C)nnn2-c2nonc2N)c1,AC50,[2],"35.5 µM [falling, partial curve]"
Cc1cc(OC(=O)c2ccco2)c(Sc2ccccc2[N+](=O)[O-])c(=O)o1,AC50,[2],"0.0141 µM [falling, full curve, poor fit]"
same,AC50,[1],"0.01 µM [falling, full curve, poor fit]"
CCOC(=O)c1c(NC(=O)c2ccc(S(=O)(=O)N(CCOC)CCOC)cc2)sc2c1CC(C)(C)NC2(C)C,AC50,[2],"7.08 µM [falling, partial curve]"
Cn1c(N2CCCC2)nc2c1c(=O)n(Cc1ccc(Cl)cc1)c(=O)n2C,AC50,[2],"10 µM [rising, partial curve]"
same,AC50,[1],"14.1 µM [rising, single point]"
CCOc1ccc(C2Sc3ccccc3NC3=C2C(=O)OC3)cc1 (stereo not given),AC50,[1],"31.6 µM [rising, single point]"

# Copied from above for reference:
structure (smiles),measurement,setting,value
O=C(NCc1cccs1)c1nc2c(nnn2Cc2ccccc2Cl)c(=O)[nH]1,AC50,[2],"11.2 µM [falling, partial curve]"
same,AC50,[1],"28.2 µM [falling, single point]"
